The record followed here is paper PMC12172489.

The chains behind the UniProt entries cited, without tags or fusion partners.
UniProt P03427: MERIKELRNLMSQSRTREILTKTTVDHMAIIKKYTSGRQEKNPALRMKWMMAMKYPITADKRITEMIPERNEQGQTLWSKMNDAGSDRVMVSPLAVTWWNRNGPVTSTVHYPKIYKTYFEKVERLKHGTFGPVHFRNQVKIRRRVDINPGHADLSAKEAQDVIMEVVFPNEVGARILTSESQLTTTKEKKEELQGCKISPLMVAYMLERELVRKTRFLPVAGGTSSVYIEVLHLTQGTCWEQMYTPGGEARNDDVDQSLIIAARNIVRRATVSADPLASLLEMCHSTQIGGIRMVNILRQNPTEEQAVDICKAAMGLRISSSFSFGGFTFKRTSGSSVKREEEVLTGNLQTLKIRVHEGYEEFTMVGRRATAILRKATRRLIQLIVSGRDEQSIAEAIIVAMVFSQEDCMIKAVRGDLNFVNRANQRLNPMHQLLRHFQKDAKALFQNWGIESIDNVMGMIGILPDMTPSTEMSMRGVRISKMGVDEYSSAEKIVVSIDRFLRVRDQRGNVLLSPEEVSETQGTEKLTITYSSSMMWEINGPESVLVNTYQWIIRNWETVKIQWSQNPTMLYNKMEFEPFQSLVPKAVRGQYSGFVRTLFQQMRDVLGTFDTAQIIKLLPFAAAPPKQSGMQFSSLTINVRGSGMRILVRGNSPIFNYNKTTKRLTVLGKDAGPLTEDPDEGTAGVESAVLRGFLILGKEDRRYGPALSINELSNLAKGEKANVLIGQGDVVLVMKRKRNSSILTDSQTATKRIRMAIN
UniProt Q32P51: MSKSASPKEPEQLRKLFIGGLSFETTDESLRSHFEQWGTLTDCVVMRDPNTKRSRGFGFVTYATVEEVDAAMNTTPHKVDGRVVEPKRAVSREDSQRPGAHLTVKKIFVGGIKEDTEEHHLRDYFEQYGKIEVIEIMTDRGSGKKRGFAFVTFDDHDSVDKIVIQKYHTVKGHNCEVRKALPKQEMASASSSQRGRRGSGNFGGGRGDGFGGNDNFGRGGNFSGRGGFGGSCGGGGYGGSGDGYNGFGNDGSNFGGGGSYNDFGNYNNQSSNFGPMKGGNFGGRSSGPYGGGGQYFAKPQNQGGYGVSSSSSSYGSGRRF

The experiment concerns the target PB2-TAP fusion protein of influenza A/WSN/33 (WSN, H1N1) virus (influenza A/WSN/33 (WSN, H1N1) virus) (UniProt P03427). In words: affinity purification with mass spectrometry.

These are yes or no findings as the source states them, for the method shown. In cells and extracts the contact can be indirect. Here binding means that the protein was enriched with, or labelled near, the bait; the list need not be complete.

For the substance hnRNPA1L2 (from UniProt Q32P51 1-320), the binding entry was “binds”.
